Experimental data taken from publication PMC7432317, “Structural Analysis of the SANT/Myb Domain of FLASH and YARP Proteins and Their Complex with the C-Terminal Fragment of NPAT by NMR Spectroscopy and Computer Simulations” (International Journal of Molecular Sciences, 2020).

By UniProt entry, the sequences of proteins in these tests, tags left out. Where a name states a change or a piece, a line headed by the entry shows the natural chain unless it says otherwise.
UniProt Q9UKL3: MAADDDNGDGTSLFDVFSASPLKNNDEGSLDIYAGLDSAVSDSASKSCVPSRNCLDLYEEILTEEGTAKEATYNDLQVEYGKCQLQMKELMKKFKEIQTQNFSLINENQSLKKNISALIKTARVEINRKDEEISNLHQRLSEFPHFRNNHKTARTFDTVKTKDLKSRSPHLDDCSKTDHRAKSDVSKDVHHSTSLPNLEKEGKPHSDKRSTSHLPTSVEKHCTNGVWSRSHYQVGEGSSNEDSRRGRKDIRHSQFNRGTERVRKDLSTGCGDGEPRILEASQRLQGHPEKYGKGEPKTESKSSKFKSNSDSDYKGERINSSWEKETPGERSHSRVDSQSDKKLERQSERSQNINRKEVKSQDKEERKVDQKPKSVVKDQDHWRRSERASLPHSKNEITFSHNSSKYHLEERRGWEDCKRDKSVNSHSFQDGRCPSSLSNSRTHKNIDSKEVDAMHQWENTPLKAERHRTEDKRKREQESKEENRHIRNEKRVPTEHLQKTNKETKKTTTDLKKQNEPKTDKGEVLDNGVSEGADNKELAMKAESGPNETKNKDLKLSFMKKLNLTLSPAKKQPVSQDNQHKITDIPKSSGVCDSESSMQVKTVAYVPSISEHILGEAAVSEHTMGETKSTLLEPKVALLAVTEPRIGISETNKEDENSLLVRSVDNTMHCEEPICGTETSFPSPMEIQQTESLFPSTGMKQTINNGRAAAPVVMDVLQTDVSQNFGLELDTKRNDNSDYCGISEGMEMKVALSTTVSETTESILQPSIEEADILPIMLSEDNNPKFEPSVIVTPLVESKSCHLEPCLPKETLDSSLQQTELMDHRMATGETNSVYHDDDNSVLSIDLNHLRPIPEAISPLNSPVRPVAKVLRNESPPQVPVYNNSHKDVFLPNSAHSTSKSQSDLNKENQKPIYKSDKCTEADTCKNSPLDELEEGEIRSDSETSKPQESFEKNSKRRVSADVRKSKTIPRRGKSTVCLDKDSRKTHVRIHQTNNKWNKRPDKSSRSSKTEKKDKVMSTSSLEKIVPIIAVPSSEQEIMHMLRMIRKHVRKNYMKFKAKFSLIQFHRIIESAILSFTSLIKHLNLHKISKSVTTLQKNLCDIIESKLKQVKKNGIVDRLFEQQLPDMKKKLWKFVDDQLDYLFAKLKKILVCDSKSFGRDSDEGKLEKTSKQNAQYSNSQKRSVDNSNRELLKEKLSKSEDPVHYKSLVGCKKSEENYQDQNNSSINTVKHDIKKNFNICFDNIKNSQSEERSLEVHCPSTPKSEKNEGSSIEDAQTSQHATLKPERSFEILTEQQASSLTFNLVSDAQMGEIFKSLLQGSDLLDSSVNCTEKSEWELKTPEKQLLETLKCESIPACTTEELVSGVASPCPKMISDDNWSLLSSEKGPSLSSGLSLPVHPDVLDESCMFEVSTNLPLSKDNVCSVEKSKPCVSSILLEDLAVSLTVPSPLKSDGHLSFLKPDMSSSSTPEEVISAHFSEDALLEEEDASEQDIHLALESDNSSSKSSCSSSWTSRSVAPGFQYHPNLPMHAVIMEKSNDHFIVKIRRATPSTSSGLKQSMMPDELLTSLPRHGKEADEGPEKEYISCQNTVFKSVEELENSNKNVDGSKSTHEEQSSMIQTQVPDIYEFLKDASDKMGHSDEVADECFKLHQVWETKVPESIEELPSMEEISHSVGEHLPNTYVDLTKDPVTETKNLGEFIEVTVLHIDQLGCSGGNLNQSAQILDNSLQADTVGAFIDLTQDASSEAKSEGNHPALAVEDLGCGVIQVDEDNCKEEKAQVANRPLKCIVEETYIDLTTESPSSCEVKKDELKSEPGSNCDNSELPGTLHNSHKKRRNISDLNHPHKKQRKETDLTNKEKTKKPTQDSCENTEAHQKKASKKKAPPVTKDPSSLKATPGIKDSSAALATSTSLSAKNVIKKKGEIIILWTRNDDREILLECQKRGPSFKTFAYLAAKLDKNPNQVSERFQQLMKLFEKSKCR

B1: NPAT, the last 131 amino acids, wild type (domain or fragment, UniProt Q14207 1297-1427)
chain: EDSSTSKVMVPPVTPDLPACSPASETGSENSVNMAAHTLMILSRAAISRTTSATPLKDNTQQFRASSRSTTKKRKIEELDERERNSRPSSKNLTNSSIPMKKKKIKKKKLPSSFPAGMDVDKFLLSLHYDE
modifications: 35S label
B2: NPAT, the last 131 amino acids, L1420A (domain or fragment, UniProt Q14207 1297-1427)
chain: B1 chain with L124A
modifications: 35S label
B3: NPAT, the last 131 amino acids, L1423A (domain or fragment, UniProt Q14207 1297-1427)
chain: B1 chain with L127A
modifications: 35S label
B4: NPAT, the last 131 amino acids, F1419A (domain or fragment, UniProt Q14207 1297-1427)
chain: B1 chain with F123A
modifications: 35S label
B5: NPAT, the last 131 amino acids, Y1425A (domain or fragment, UniProt Q14207 1297-1427)
chain: B1 chain with Y129A
modifications: 35S label
B6: NPAT, the last 131 amino acids, with the two acidic residues at the C-terminus deleted (ΔDE) (domain or fragment, UniProt Q14207 1297-1425)
chain: EDSSTSKVMVPPVTPDLPACSPASETGSENSVNMAAHTLMILSRAAISRTTSATPLKDNTQQFRASSRSTTKKRKIEELDERERNSRPSSKNLTNSSIPMKKKKIKKKKLPSSFPAGMDVDKFLLSLHY
modifications: 35S label
B7: NPAT, the last 131 amino acids, F1410A (domain or fragment, UniProt Q14207 1297-1427)
chain: B1 chain with F114A
modifications: 35S label
B8: NPAT, the last 131 amino acids, H1424A (domain or fragment, UniProt Q14207 1297-1427)
chain: B1 chain with H128A
modifications: 35S label

What was measured:
[1] = molecular target: GST fusion of the SANT/Myb domain of FLASH (60 amino acids) (human) (UniProt Q9UKL3); assay: pull-down; GST fusions limited to the SANT/Myb domain of FLASH (60 aa) or YARP (61 aa) incubated with 35S-labelled in vitro translated NPAT (last 131 amino acids), glutathione beads, radiography; KCl not stated for this set; 600 mM KCl also tested (NPAT-YARP stabilized, NPAT-FLASH weakened); only the target purified
[2] = molecular target: GST fusion of the SANT/Myb domain of YARP (61 amino acids) (human); assay: as above

| Binder | binding [1] | binding [2] |
| --- | --- | --- |
| B1 | binds | binds |
| B2 | binds | binds weakly |
| B3 | binds | binds weakly |
| B4 | binds | binds |
| B5 | binds | binds |
| B6 | binds | binds |
| B7 | binds | binds |
| B8 | binds | binds |

Substitutions are numbered along the chain they refer to. No constants are given. Whether binding was seen depends on the method and setting. In cells and extracts the contact can be indirect. A result given as binding can be weak or reduced; the word gives no strength.
